According to PMC6382169, “Molecular features of steroid-binding antidins and their use for assaying serum progesterone” (PLoS ONE, 2019):
Positions count from the first letter of the chain named. Numbers in names are those of the source.

The chains behind the UniProt entries cited, without tags or fusion partners. Where a name states a change or a piece, a line headed by the entry shows the natural chain unless it says otherwise.
UniProt P02701: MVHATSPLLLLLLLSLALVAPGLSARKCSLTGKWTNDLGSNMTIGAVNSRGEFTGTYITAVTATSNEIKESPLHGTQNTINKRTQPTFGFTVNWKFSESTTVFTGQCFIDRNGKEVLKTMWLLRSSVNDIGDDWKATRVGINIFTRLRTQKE

B1: sbAvd-2: antidin with RMNH at 13-16 and ATVN at positions 35-38; from AvLib-3 (protein, UniProt P02701 25-152, looked up, variant D13R L14M G15N S16H T35A A36T T38N)
Avidin: ARKCSLTGKWTNRMNHNMTIGAVNSRGEFTGTYIATVNATSNEIKESPLHGTQNTINKRTQPTFGFTVNWKFSESTTVFTGQCFIDRNGKEVLKTMWLLRSSVNDIGDDWKATRVGINIFTRLRTQKE
B2: sbAvd-7: antidin with RMNH at 13-16, ASLN at 35-38 and T77A; from AvLib-4, progesterone panning (protein)
chain: B1 Avidin with T36S, V37L, T77A
modifications: left off: 6xHis, C-terminal, state not stated
notes: antidin with RMNH at 13-16, ASLN at 35-38 and T77A; from AvLib-4, progesterone panning

Assay: Antigen EIA microplate assay for determination of progesterone concentration
Parameters: species or system dog
Settings: for progesterone concentration range detected: phosphate buffer and progesterone-spiked serum samples; for lowest progesterone concentration detected: serum samples

Molecule | progesterone concentration range detected | lowest progesterone concentration detected
B1 | 31.3 to 500 ng/mL | ~ 30 ng/ml
B2 | 31.3 to 500 ng/mL | ~ 30 ng/ml
